No constants are given. Whether binding was seen depends on the method and setting. For part of these data: In cells and extracts the contact can be indirect. Some binding calls cover weakened binding; strength is not graded here.
Experiments:
VSV-NRP-ΔN (aa 300–577) = VSV-NRP-ΔN (aa 300–577) (UniProt Q96CV9); assay: co-IP
[1] = target: VSV-tagged NRP (wild type, aa 1–577) (UniProt Q96CV9); assay: co-IP
Flag-tagged TAX1BP1 = Flag-tagged TAX1BP1 (UniProt Q86VP1); assay: co-IP
[2] = target: Tax1 (wild-type, pSG5M-Tax1, expressed in 293T cells) (HTLV-1) (UniProt P03409); assay: co-IP
[3] = target: endogenous NRP of C8166 and C91PL cells (human (endogenous in C8166 and C91PL)) (UniProt Q96CV9); assay: co-IP
HA-tagged NRP (aa 1–577) = HA-tagged NRP (aa 1–577) (UniProt Q96CV9); assay: SEC

Protein sequences, listed by entry. Tags and fused reporters are not part of them. Lines headed by an entry give the natural chain unless they say otherwise; changes in a name come on top. Residues count along the entry.
VSV-NRP-ΔN (aa 300–577) (Q96CV9, residues 300-577): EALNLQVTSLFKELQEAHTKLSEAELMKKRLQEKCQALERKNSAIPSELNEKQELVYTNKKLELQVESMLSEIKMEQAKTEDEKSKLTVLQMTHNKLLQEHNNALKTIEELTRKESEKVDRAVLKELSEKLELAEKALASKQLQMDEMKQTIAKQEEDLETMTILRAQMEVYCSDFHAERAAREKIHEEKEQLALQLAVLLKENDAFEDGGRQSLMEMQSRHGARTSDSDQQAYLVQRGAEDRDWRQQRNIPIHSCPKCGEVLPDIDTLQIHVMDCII
UniProt Q86VP1: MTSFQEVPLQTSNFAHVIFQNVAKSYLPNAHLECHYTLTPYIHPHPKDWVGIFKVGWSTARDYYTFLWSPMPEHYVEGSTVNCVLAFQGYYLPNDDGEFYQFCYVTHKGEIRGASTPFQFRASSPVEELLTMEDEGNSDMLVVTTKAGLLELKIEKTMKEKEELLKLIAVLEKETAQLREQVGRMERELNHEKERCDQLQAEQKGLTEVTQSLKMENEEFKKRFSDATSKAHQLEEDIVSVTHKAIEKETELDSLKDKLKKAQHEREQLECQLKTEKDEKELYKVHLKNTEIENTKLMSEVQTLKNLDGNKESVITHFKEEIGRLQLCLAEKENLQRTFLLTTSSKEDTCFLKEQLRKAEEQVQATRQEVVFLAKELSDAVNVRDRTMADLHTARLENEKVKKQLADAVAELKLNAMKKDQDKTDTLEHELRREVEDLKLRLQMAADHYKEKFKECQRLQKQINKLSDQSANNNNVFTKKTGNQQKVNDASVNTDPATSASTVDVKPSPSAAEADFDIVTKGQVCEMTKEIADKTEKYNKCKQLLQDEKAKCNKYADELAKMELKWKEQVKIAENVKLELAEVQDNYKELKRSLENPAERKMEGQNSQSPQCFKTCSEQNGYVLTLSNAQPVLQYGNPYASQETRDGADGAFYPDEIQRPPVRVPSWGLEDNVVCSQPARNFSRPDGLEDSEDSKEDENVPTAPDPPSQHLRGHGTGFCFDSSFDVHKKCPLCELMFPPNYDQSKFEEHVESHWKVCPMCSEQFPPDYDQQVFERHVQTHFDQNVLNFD

Substance: Tax1 (wild-type, pSG5M-Tax1, expressed in 293T cells) (from UniProt P03409 1-353)
- binding (VSV-NRP-ΔN (aa 300–577)): binds
- binding [1]: binds

Substance: VSV-tagged NRP (wild type, aa 1–577) (from UniProt Q96CV9 1-577)
- binding (Flag-tagged TAX1BP1): binds
- binding [2]: binds

Substance: Tax1 expressed in HTLV-1-infected cell lines C8166 and C91PL (from UniProt P03409 1-353)
- binding [3]: binds

Substance: Tax1 (expressed in HeLa cells) (from UniProt P03409 1-353)
- binding (HA-tagged NRP (aa 1–577)): binds

From PMC2706988
